Laboratory results taken from paper PMC6449874.
No constants are given. Whether binding was seen depends on the method and setting. In cells and extracts the contact can be indirect. For some of these results: Binding calls can cover weak binding; strength is not graded here. For some of these results: Tags and fused reporters may be left off the sequences shown.

Amino acid sequences for entries named in this document (tags omitted). A change or cut given only in a name is not applied to a line headed by its entry.
UniProt Q8VZQ2: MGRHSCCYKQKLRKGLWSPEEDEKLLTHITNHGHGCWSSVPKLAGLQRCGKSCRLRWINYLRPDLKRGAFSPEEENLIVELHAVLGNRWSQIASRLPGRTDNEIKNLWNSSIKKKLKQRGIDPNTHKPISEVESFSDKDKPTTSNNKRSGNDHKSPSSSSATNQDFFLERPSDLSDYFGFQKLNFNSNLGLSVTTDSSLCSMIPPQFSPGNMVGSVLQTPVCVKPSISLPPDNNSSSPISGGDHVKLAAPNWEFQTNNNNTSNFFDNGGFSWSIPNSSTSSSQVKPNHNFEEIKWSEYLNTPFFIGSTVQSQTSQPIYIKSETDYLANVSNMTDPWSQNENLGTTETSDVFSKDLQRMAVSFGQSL
UniProt Q9ATD6: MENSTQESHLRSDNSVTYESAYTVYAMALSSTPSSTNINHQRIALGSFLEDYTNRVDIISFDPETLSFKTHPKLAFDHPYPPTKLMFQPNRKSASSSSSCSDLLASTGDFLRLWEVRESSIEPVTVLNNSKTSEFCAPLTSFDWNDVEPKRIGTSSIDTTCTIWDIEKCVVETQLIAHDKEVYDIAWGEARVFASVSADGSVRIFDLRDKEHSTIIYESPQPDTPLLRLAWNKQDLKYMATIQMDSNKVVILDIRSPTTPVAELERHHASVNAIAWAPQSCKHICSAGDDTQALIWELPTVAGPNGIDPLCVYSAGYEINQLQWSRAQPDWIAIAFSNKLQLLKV

Legend:
Test in all cases: pull-down; LUMIER pulldown: one protein fused to ProtA, the other to Rluc, each single-expressed in HEK293TM cells; lysis buffer 20 mM Tris pH 7.5, 250 mM NaCl, 1.1% Triton X-100, 10 mM EDTA, 10 mM DTT; sheep anti-rabbit IgG-coated Dynabeads, 1 h on ice; Rluc on the beads as percent of input; +: >= 2.5%, w: 1.5%-2.5%, -: < 1.5%; two grades in each cell
[1] = target: T1, AtGL3 (Arabidopsis thaliana) (UniProt Q9FN69)
T1 sequence: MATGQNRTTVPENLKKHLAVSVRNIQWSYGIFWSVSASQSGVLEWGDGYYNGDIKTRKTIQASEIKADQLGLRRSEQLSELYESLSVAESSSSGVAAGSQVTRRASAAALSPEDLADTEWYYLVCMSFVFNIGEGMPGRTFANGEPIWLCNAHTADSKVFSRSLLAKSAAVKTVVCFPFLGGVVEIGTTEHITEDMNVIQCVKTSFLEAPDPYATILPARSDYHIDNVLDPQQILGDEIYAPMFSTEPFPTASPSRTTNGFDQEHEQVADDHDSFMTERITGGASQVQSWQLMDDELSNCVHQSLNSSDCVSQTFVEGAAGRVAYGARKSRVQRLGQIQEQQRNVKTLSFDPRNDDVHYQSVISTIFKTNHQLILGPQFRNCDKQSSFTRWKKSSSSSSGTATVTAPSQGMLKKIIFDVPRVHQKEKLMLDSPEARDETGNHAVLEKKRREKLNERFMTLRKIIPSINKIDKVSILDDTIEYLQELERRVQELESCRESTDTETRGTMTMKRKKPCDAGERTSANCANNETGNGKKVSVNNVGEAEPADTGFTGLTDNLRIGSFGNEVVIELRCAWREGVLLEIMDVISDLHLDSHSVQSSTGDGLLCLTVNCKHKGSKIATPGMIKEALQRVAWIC

[2] = target: T2, AtMYC1 (Arabidopsis thaliana) (UniProt Q8W2F1)
T2 sequence: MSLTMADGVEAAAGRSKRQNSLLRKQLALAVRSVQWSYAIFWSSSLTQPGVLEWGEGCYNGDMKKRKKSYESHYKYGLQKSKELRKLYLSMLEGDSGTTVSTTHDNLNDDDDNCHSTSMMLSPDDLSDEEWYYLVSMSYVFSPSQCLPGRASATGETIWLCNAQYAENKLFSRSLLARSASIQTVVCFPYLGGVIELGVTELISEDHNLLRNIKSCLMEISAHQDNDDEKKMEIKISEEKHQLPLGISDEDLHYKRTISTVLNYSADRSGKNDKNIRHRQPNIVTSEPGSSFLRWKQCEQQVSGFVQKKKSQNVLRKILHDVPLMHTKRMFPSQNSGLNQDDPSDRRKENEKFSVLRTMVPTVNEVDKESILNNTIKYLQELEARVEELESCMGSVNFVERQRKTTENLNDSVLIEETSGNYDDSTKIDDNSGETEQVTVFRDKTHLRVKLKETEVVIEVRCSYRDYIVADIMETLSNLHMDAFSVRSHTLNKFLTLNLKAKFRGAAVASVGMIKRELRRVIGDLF

[3] = target: T3, AtPAP2 (Arabidopsis thaliana) (UniProt Q9ZTC3)
T3 sequence: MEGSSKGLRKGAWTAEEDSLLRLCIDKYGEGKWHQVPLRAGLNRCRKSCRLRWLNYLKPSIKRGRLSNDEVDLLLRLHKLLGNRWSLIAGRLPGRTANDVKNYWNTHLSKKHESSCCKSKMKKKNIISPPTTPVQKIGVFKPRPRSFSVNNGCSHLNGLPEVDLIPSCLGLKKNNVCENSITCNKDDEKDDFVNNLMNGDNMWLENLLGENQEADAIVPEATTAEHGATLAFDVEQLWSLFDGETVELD

[4] = target: T4, AtWER (Arabidopsis thaliana) (UniProt Q9SEI0)
T4 sequence: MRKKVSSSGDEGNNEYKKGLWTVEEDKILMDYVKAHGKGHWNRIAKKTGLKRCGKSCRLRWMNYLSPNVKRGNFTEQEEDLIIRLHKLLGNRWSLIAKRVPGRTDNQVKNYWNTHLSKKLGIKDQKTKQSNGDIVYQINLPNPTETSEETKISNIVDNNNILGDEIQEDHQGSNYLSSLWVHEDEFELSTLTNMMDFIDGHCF

[5] = target: AtMYB61 (Arabidopsis thaliana) (UniProt Q8VZQ2)

binding [1]	binding [2]	binding [3]	binding [4]	binding [5]	Substance
binds	binds	no binding	no binding	–	ZmPAC1 (Zea mays)
binds	binds	no binding	no binding	–	AaTTG1 (Arabis alpina)
no binding	no binding	no binding	no binding	–	GhTTG4 (Gossypium hirsutum)
binds	binds	no binding	no binding	–	GhTTG3 (Gossypium hirsutum)
binds	binds	no binding	no binding	no binding	GhTTG1 (from UniProt Q9ATD6)
no binding	–	no binding	no binding	–	ZmMP1 (Zea mays)
no binding	no binding	no binding	no binding	–	GhTTG2 (Gossypium hirsutum)
